# From article PMC11820944, “Safirinium Fluorescent “Click” Molecular Probes: Synthesis, CuAAC Reactions, and Microscopic Imaging” (Molecules, 2025)
# Test system: CHO-K1 cells
# Assay: Cellular uptake and distribution by fluorescence (confocal) microscopy
# Type: cell-based, Chinese hamster
# Conditions: 10 µM, 30 min
# Method: Figure 6 Cellular uptake and intracellular distribution of selected probes (1 and 6) and triazole derivatives (11, 12, 13, and 15) in Chinese hamster ovary cells. CHO-K1 cells were cultured overnight and then incubated with the tested compounds (10 μM). Representative images (100× magnification) illustrating intracellular distribution of the compounds in CHO-K1 cells were captured after 30 min of incubation with the tested compounds. Scale bar = 20 μm.
# CHO-K1 cells were seeded at a density of 2 × 10^5/well in 12-well plates containing cover slips at the bottom and cells were incubated for 24 h. Then, cells were fixed in 3.7% formaldehyde in PBS for 10 min in 37 °C, washed twice with PBS, and stained with compound solution (10 µM) for 30 min. After this time, the cells were rinsed 2 times with Gibco FluoroBrite DMEM and a coverslip was placed on a stock carrier with drops of culture medium. Finally, slides were mounted in ProLong™ Glass Antifade Mountant and visualized under an A1 confocal system built on a Nikon Eclipse Ti-E microscope (Japan) equipped with 405 and 561 nm diode lasers and a Plan Apo 100×/1.4 Oil DIC objective.
row,Compound,Stability and fluorescence under microscopic observation conditions
1,"C#CCNC(=O)C1=C(C)C=C(C)N2C[N+](CC)(CC)N=C12.[Br-] [Compound 1, 2,2-Diethyl-5,7-dimethyl-8-[(prop-2-yn-1-yl)carbamoyl]-2H,3H-[1,2,4]triazolo [4,3-a]pyridin-2-ium bromide]",remain stable and fluorescent
2,"CC[N+]1(CC)CN2C(C)=CC(C)=C(C(=O)NCCCCCN=[N+]=[N-])C2=N1.[Br-] [Compound 6, 8-((5-Azidopentyl)carbamoyl)-2,2-diethyl-5,7-dimethyl-2,3-dihydro-[1,2,4]triazolo[4,3-a]pyridin-2-ium bromide]",remain stable and fluorescent
